Test results: PubChem BioAssay AID652054 (National Center for Advancing Translational Sciences (NCATS), 2013)
Screen size: about 360,000 compounds; about 9,100 (2.5%) were called active. This list was built around the results that the source calls inconclusive (neither active nor inactive); the mix of calls is not that of the screen. Cut-off read from the data, not from the text of the source: active = max response below about -50%; inconclusive = no clear call, values can overlap the other calls; inactive = above that.

Chains of the proteins cited; added tags and fusions are not shown.
UniProt P35462, whole entry, looked up: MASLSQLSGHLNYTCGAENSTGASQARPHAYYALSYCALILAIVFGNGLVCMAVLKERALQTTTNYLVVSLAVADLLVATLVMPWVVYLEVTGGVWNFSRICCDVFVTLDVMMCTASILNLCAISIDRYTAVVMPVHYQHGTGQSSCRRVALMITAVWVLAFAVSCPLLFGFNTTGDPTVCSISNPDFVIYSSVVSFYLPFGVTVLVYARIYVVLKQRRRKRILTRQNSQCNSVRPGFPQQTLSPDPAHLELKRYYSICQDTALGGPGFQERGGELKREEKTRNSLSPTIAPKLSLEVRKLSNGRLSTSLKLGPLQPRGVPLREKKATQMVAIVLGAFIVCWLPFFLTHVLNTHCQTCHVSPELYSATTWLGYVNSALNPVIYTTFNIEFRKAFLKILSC

Biological target: D(3) dopamine receptor (Homo sapiens) (UniProt P35462)
Experiment: qHTS of D3 Dopamine Receptor Antagonist: qHTS
Conditions: D3R cells, DiscoveRx beta-arrestin luminescence, antagonist mode; stronger effect = lower value
Method in brief: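 Cells expressing the human receptor were seeded at 1500 cells/well, incubated overnight at 37 degrees C in 5% CO2, then exposed to library compounds with dopamine controls for 90 minutes at 37 degrees C before luminescent detection.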
% is set by controls: 0 for no effect and ±100 for the full control effect.

SMILES	max response, negative = inhibition
CC1CCC(C(C)C)C(OC(=O)C[n+]2cccc(C(N)=O)c2)C1 (stereo not given)	inconclusive: -48.3%
O=C(O)CC/C(=C\c1ccc(N2CCCC2)c([N+](=O)[O-])c1)c1nc2ccccc2s1	inactive: -7.08%
O=C(c1ccc(CS(=O)Cc2ccc(Cl)cc2)o1)N1CCN(C2CCCCC2)CC1 (stereo not given)	inconclusive: -37%
C=CCc1c(C)nc(C)nc1N/N=C/c1ccc(F)cc1	inconclusive: -32.6%
CCOc1cccc(Cc2c[nH]c(=O)[nH]c2=O)c1	inconclusive: -31.3%
CC(=O)NC12CC3CC(C1)CC(C(=O)Nc1c(C)n(C)n(-c4ccccc4)c1=O)(C3)C2	inactive: 0.789%
Cc1cc(=O)n2nc(N3CCC(C(=O)N4CCN(C)CC4)CC3)sc2n1	inconclusive: -35.7%
CC(Oc1cccc(Br)c1)C(=O)NNC(=O)c1ccccn1 (stereo not given)	inconclusive: -40.6%
CCOC(=O)C1=C(C)OC2(O)c3ccccc3C(=O)C12O (stereo not given)	inconclusive: -39.9%
OCc1ccccc1-c1cnc2cccnn12	inconclusive: -38.8%
COc1cc(C2SCC(=O)N2CCN2CCCCC2)ccc1O (stereo not given)	inconclusive: -45.9%
CCC(=O)NC(c1ccc(C)cc1)c1cc([N+](=O)[O-])c2cccnc2c1O (stereo not given)	inconclusive: -45.3%
CC(NC(=O)Nc1ccc(F)cc1)c1ccc2c(c1)OCO2 (stereo not given)	inactive: -12.2%
CC(=O)N1CC(=O)N=C1SCC(=O)Nc1nc(C)c(-c2ccccc2)s1	inconclusive: -38.3%
COc1cc(-c2nnc(SCC3(c4ccc(Br)cc4)OCCO3)o2)cc(OC)c1OC	inconclusive: -33.8%
O=[N+]([O-])c1ccc(/C=C/c2ccc3ccccc3n2)cc1	inactive: -12.1%
Brc1ccc(CN2CC[C@H]3C=CCc4cccc(c43)C2)cc1	active: -107%
COc1cc(Cn2c3ccc(NC(=O)CCc4ccccc4)cc3c(=O)n2C)ccc1F	inconclusive: -35.1%
COc1ccc(C(=O)N2CC3(CC(c4cccc(NC(=O)CC(c5ccccc5)c5ccccc5)c4)=NO3)C[C@H]2C(N)=O)cc1 (stereo not given in full)	inconclusive: -31.7%
Cc1cc(C)nc(NS(=O)(=O)c2ccc(NC(=S)NC(=O)CC(C)C)cc2)n1	inconclusive: -36.6%
Cc1ccc(-c2nnc(COC(=O)c3ccco3)o2)cc1	active: -95.4%
CC(C)C1Cc2c(C#N)c(N)sc(=S)c2CO1 (stereo not given)	inconclusive: -34.9%
CCCN(CC1CC1)c1cc2c(c3c1ccn3C)C1CCC2C1 (stereo not given)	inconclusive: -47%
O=C(CSc1nccn1Cc1ccccc1)Nc1ccccc1	inconclusive: -31%
c1ccc2c(NC3=NCCCCS3)cccc2c1	inconclusive: -45.8%
CCN(CC)CCCN(C(=O)c1cccs1)c1nc(-c2ccc(OC)cc2)cs1	inconclusive: -40%
CC(O)(c1ccccc1)c1nc(-c2cccc(F)c2)cs1 (stereo not given)	inconclusive: -40.6%
COc1ccc(NC(=O)C2CC2)cc1NS(=O)(=O)c1ccc(F)cc1	inconclusive: -37.5%

Structures listed so far containing fluorine:
SMILES	max response, negative = inhibition
C=CCc1c(C)nc(C)nc1N/N=C/c1ccc(F)cc1	inconclusive: -32.6%
CC(NC(=O)Nc1ccc(F)cc1)c1ccc2c(c1)OCO2 (stereo not given)	inactive: -12.2%
COc1cc(Cn2c3ccc(NC(=O)CCc4ccccc4)cc3c(=O)n2C)ccc1F	inconclusive: -35.1%
CC(O)(c1ccccc1)c1nc(-c2cccc(F)c2)cs1 (stereo not given)	inconclusive: -40.6%
COc1ccc(NC(=O)C2CC2)cc1NS(=O)(=O)c1ccc(F)cc1	inconclusive: -37.5%

Further results:

SMILES	max response, negative = inhibition
O=C(CCCN1C(=O)/C(=C/c2cccc(Br)c2)SC1=S)NCCCN1CCOCC1	inactive: -8.2%
CN(C)CCO[C@@H](c1ccc(Cl)cc1)c1ccccn1	inconclusive: -38.6%
O=C1NC(=Nc2ccccc2)SC1Cc1cccc(Cl)c1Cl (stereo not given)	inconclusive: -30.6%
CCOc1cc2c(cc1O)C(=NO)CC1C2CCC2(C)C(O)CCC12 (stereo not given)	inactive: -17.7%
CN(C)c1ccc(CN2CCC(C(=O)NC(c3ccc(Cl)cc3)c3cnccn3)CC2)cc1 (stereo not given)	inactive: -29.1%
Cc1ccc([N+](=O)[O-])cc1NC(=S)NC(=O)c1cccnc1	inconclusive: -49.3%
CCOC(=O)C(Cc1ccc(O)cc1)NC(=O)c1cc2c(cn1)[nH]c1ccccc12 (stereo not given)	inconclusive: -37.4%
Oc1ccc(/C=C/c2cc(O)cc(O)c2)cc1	inactive: 8.64%
O=C(NCc1ccccc1OC(F)(F)F)C1CCC(=O)N(CCCN2CCOCC2)C1 (stereo not given)	inactive: 2.43%
COc1ccc(-c2nc(CCNS(=O)(=O)c3ccc4c(c3)OCCO4)cs2)cc1	inconclusive: -35.1%
O=C(O)c1cccc(N2C(=O)/C(=C/c3ccc(SCc4ccc(Cl)cc4)o3)SC2=S)c1	active: -59.2%
CCOC(=O)C1=CCC2c3c(c4ccccc4n3C)C(=O)C1N2C(=O)OC(C)(C)C (stereo not given)	inconclusive: -48.2%
Cc1cc(C)nc(NS(=O)(=O)c2ccc(NC(=O)c3cccc(N4C(=O)CCC4=O)c3)cc2)n1	active: -59.4%
Cc1ccc2nc(NC(=O)CN(C)S(=O)(=O)c3cccc4nsnc34)sc2c1	inconclusive: -42.7%
O=C(NCCc1cccnc1)C1CCC(=O)N(Cc2cccc(C(F)(F)F)c2)C1 (stereo not given)	inconclusive: -39.2%
COc1cc(-c2nc3ccc(C)cn3c2NCc2ccccc2)ccc1SC1CCCCC1	inactive: 92.7%
COc1cc(/C=C2\SC(N)=NC2=O)cc(OC)c1	inconclusive: -42.1%
COc1cc(-c2cc(C(=O)Nc3cc(S(=O)(=O)N4CCOCC4)ccc3O)c3ccccc3n2)cc(OC)c1OC	inconclusive: -31.6%
O=C(Nc1ccc(S(=O)(=O)Nc2nccs2)cc1)c1cc(-c2ccccc2Cl)nc2ccccc12	active: -85.2%
COc1ccc2nc(SCc3ccccc3C)nc(C)c2c1	inconclusive: -41.3%
CN1CCN(c2nc3ccccc3nc2C(C#N)S(=O)(=O)c2ccccc2)CC1 (stereo not given)	inactive: 0.937%
COc1ccc(-c2c3c(=O)n(C)c(=O)n(C)c3cn2-c2cc(OC)ccc2OC)cc1	inconclusive: -34.1%
Cc1ccc(-c2noc(CCC(=O)NCCN3CCc4ccccc4C3)n2)cc1	active: -76%
CCC(C)[C@H](NC(=O)NC1CCN(Cc2ccccc2)CC1)C(=O)OC (stereo not given in full)	active: -50.2%
Cc1onc(-c2ccccc2Cl)c1C(=O)Nc1ccc(Cl)cn1	inconclusive: -34.7%
CSCCC(C(=O)NCc1ccccc1)n1c(-c2ccc3c(c2)CCO3)nc2ccccc21 (stereo not given)	inconclusive: -43.3%
